How the values were obtained:
activated sludge = assay: Biodegradability: degradation by microorganisms with degradation tester and closed system oxygen consumption meter; details: 14 days; 100 % = whole sample degraded into inorganic substances
Method: The biodegradability of the derivatives was determined by checking the degree of degradation of those chemicals by microorganisms (procedures defined in Japanese domestic low for regulation of chemical substances and in OECD) with a degradation tester and closed system oxygen consumption meter. The test was continued for 14 days and the biodegradability data was calculated into percentage.
The 100-% degradability in the testing means that whole of a test sample has been degraded into inorganic substances such as carbon dioxide.

[1] = Water-absorption effect on treated fabric (JIS P-8141, height of absorbed water); details: treated with 0.005-wt % aqueous solution 30 minutes, 25° C., 40% RH
[2] = Antistaticity test of treated fabric (static half-life); details: charged with 10-kV for 30 seconds, 25° C., 40% RH
[3] = Frictional coefficient of treated fabric; details: 300 mm/min, 300-g loading, 25° C., 40% RH
[4] = Cotton sheeting, average of two tests
[5] = Polyester/cotton blend (65:35, %)
[6] = Polyester/cotton blend (65:35%)

Row | Compound | Biodegradability (%) (activated sludge) | Height of absorbed water [1, 4] | Height of absorbed water ([1]; Polyester taffeta) | Height of absorbed water [1, 5] | Static half-life ([2]; Cotton sheeting) | Static half-life ([2]; Polyester taffeta) | Static half-life [2, 5] | Dynamic frictional coefficient ([3]; Cotton sheeting) | Static frictional coefficient ([3]; Cotton sheeting) | Dynamic frictional coefficient [3, 6] | Static frictional coefficient [3, 6]
1 | CCCCCCCCCCCCCCCC[N+](C)(C)C.[Br-] [Cetyl trimethyl ammonium bromide, reference compound] | −2.2% |  |  |  |  |  |  |  |  |  | 
2 | CCCCCCCCCCCCCCCCCC[N+](C)(C)CCCCCCCCCCCCCCCCCC.[Cl-] [DSDMAC, dimethyl dioctadecyl ammonium chloride, reference compound] |  | 3.9 cm | 0.8 cm | 3.7 cm | 0.96 s | 12.9 s | 1.35 s | 0.07 | 0.13 | 0.18 | 0.19
3 | CCCCCCCCCCCC(=O)OCC(O)C(O)C(O)C(O)C[N+](C)(C)C.[Cl-] (stereo not shown) [Monolaurate derivative] | 43.0% | 7.0 cm | 2.0 cm | 6.0 cm | 1.03 s | 5.6 s | 1.16 s | 0.22 | 0.26 | 0.17 | 0.18
4 | CCCCCCCCCCCCCC(=O)OCC(O)C(O)C(O)C(O)C[N+](C)(C)C.[I-] (stereo not shown) [Monomyristate derivative] | 35.5% |  |  |  |  |  |  |  |  |  | 
5 | CCCCCCCCCCCCCCCC(=O)OCC(O)C(O)C(O)C(O)C[N+](C)(C)C.[Cl-] (stereo not shown) [Monopalmitate derivative] |  | 5.6 cm | 2.7 cm | 4.9 cm | 1.01 s | 4.5 s | 1.15 s | 0.32 | 0.35 | 0.18 | 0.19
6 | C[N+](C)(C)CC(O)C(O)C(O)C(O)CO.[I-] (stereo not shown) [Quaternary salt of methyl glucamine, HO—CH2—(CH.OH)4—CH2—N^+(CH3)3I^−, reference compound] | 17.1% |  |  |  |  |  |  |  |  |  | 
